One experiment has as its system Haemonchus contortus. Put plainly: Method A: Haemonchus contortus L1 larvae, microtitre plate screen. Conditions: 96 h, read-out: motility inhibition.
For a further experiment, the system named is Cooperia oncophora. As to the kind of experiment: Method C: Cooperia oncophora L1 larvae in vitro. Conditions: 96 h, read-out: inhibition of motility.
Experiment [1] deals with microfilaria of Dirofilaria immitis. Put plainly: Method F: microfilaria of Dirofilaria immitis, survival at 24 hours.

Where only a bound is given, the exact number is not on record here.

One may read the inhibition as the drop in the measured response relative to a control, in per cent. As usually defined, the EC50 is the concentration giving half of the maximal effect. A lower EC50 goes with higher potency in that assay. Regarding `O=C(CO[C@H]1CC[C@H](Nc2ccc([N+](=O)[O-])c(C(F)(F)F)c2)CC1)N1CCN(c2ccc3cc(F)ccc3n2)CC1` [Compound 97, 1-[4-(6-fluoroquinolin-2-yl)piperazin-1-yl]-2-[(4-[[4-nitro-3-(trifluoromethyl)phenyl]amino]cyclohexyl)oxy]ethan-1-one], the inhibition at 5 µg/mL with Haemonchus contortus and with Cooperia oncophora was no less than 90% in each case. The same compound returned a half-maximal effective concentration (EC50) in experiment [1] of less than 1 µg/mL.

For the origin of these results see patent US9249102B2 (priority 2012, dated 2016).
